Seven molecules from publication PMC6264874, “A single class of ARF GTPase activated by several pathway-specific ARF-GEFs regulates essential membrane traffic in Arabidopsis” (PLoS Genetics, 2018) can be followed below.

The chains behind the UniProt entries cited, without tags or fusion partners.
UniProt Q9LS94: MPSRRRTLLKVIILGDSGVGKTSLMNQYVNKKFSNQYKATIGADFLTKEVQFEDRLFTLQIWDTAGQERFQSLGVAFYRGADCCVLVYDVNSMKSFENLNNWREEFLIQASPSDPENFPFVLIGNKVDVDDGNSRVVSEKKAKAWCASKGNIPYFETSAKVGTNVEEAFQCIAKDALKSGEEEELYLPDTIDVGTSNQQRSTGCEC
UniProt P36397: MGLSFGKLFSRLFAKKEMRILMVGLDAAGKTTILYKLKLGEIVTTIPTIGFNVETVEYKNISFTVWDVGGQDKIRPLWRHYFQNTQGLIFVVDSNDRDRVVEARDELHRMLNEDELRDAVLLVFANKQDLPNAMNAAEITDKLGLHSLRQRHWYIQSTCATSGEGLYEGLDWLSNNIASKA
UniProt Q9LZX8: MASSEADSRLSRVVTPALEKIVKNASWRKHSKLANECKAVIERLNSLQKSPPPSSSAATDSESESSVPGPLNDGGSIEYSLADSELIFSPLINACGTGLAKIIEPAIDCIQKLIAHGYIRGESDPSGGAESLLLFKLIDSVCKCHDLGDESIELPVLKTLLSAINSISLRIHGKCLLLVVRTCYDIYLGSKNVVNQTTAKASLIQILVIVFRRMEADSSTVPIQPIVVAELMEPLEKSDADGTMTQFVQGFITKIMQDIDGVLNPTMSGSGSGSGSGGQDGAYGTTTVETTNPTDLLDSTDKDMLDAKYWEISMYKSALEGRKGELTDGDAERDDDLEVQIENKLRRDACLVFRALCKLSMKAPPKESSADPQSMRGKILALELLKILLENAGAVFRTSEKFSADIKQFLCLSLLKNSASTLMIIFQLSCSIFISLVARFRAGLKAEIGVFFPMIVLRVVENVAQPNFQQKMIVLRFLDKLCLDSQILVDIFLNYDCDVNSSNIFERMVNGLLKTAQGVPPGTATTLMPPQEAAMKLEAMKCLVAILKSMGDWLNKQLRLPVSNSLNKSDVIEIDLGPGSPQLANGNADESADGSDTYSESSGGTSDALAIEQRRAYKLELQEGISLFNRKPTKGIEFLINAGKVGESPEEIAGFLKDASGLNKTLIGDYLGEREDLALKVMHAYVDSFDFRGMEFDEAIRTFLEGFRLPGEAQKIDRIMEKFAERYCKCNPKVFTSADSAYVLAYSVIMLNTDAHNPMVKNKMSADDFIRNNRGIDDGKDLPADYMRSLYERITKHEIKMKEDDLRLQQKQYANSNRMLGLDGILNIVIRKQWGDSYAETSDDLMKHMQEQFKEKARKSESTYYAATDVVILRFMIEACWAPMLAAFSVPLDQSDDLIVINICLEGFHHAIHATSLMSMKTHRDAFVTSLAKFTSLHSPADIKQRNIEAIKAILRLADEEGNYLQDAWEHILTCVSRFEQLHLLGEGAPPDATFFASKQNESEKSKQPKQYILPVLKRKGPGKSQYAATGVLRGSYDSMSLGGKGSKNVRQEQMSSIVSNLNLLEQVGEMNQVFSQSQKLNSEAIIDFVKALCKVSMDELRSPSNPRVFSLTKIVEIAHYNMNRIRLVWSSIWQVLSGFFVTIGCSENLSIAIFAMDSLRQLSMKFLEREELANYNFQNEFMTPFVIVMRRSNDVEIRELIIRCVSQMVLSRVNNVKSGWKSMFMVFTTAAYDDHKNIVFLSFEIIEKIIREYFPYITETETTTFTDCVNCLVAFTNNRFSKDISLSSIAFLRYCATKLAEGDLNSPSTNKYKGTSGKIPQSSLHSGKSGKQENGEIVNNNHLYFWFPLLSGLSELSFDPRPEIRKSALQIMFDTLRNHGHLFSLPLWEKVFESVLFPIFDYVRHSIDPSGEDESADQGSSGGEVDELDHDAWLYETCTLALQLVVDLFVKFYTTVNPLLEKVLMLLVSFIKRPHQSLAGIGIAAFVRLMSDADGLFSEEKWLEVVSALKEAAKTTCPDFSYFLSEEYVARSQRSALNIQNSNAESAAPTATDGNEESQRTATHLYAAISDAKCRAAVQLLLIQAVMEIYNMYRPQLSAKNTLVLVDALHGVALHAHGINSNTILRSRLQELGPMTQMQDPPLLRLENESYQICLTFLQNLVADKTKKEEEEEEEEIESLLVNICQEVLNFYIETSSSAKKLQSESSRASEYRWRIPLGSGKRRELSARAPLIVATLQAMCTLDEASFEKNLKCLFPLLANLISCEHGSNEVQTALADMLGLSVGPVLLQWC
UniProt Q9LPC5: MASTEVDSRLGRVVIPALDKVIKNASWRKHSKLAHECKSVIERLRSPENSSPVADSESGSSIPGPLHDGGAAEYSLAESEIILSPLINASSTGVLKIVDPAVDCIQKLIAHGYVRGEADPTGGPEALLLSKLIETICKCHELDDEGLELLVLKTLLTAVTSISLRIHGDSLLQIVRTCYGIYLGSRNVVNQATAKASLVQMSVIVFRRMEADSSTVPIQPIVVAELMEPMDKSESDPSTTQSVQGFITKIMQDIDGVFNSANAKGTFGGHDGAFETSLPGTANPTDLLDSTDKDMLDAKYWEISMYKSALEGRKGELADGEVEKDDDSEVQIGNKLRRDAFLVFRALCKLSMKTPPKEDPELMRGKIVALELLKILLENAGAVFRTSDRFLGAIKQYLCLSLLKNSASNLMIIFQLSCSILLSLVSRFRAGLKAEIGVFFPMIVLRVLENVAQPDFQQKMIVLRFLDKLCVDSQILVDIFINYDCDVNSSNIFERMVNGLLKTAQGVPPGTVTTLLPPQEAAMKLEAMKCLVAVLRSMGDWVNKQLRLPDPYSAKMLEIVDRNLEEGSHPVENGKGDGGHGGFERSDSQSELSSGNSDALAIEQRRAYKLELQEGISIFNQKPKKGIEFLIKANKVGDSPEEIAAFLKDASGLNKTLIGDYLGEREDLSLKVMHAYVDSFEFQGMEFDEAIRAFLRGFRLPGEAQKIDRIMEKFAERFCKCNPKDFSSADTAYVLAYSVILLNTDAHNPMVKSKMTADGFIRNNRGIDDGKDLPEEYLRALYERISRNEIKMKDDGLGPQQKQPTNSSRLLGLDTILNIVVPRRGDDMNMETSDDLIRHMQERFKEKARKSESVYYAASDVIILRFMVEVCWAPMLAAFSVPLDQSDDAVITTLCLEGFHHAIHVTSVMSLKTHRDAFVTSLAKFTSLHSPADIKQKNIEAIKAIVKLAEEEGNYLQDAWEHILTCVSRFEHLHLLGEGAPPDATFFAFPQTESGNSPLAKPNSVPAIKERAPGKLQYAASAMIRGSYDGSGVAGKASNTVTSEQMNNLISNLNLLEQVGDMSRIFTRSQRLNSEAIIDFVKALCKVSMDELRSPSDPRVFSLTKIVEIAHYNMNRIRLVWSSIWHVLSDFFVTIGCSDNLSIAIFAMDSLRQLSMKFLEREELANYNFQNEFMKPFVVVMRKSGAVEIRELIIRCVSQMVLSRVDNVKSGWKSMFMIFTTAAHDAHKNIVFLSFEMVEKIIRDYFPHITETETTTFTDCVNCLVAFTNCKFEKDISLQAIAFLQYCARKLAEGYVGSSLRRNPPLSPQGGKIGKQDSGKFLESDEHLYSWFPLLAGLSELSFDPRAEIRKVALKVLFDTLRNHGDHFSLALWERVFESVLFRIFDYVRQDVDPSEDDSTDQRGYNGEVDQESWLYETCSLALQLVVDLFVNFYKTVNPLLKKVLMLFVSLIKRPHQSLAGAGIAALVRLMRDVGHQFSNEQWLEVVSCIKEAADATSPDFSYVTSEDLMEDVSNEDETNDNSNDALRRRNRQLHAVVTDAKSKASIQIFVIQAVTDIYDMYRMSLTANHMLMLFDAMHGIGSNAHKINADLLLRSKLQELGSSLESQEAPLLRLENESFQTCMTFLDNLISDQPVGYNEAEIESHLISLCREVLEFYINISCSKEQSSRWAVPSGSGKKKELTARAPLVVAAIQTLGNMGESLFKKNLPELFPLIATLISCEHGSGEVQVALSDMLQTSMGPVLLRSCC
UniProt F4JN05: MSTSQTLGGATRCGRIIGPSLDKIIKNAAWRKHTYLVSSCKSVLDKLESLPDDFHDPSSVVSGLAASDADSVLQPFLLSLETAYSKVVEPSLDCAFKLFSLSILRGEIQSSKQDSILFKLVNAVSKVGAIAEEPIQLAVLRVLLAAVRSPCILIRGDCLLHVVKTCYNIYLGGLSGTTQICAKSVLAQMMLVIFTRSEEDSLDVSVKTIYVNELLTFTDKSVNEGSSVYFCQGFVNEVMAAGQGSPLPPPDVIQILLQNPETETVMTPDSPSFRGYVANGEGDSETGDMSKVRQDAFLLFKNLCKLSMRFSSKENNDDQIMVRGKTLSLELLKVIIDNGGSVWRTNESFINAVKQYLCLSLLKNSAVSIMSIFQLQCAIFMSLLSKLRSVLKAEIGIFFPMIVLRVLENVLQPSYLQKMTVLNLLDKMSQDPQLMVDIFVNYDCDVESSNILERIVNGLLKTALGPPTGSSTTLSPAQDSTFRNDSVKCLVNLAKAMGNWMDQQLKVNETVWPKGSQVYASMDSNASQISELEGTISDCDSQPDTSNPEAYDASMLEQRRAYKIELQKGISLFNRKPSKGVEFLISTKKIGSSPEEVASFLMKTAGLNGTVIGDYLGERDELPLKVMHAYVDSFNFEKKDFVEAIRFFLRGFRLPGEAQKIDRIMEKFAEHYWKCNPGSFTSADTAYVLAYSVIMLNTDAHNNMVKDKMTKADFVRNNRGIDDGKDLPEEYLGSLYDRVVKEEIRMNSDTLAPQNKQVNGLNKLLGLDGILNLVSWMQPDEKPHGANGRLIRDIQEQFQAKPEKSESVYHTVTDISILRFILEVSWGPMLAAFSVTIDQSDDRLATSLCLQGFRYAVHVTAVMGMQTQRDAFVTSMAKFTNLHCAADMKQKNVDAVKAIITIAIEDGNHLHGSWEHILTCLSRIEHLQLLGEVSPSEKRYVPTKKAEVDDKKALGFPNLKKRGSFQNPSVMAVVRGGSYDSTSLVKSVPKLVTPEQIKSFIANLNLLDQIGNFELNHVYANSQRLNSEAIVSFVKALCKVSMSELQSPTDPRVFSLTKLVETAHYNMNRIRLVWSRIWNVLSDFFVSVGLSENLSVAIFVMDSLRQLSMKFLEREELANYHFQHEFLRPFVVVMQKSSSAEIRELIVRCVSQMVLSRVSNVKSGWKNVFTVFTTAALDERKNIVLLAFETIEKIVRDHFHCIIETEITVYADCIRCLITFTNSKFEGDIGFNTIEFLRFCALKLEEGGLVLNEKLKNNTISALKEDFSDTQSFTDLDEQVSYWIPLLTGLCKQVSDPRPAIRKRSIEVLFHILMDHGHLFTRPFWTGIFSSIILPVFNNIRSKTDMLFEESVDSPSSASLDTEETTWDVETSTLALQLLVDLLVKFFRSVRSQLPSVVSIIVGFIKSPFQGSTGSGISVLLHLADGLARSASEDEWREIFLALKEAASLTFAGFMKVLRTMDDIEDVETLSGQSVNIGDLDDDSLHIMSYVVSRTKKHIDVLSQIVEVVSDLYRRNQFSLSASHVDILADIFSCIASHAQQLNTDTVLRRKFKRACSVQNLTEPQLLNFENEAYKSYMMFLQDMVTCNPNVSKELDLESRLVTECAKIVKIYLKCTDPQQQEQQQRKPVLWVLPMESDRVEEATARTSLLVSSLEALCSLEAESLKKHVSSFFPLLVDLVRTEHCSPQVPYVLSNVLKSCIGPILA

Common to all, as to assay: affinity purification with mass spectrometry; YFP-tagged GTPases (ARF and RABG3f) immunoprecipitated with GFP-Trap beads from Arabidopsis seedling extracts in the presence of brefeldin A (50 uM); eluted proteins analysed by LC-MS/MS
The target of assay [1] is YFP-RABG3f (Arabidopsis thaliana) (UniProt Q9LS94).
For assay [2], the target named is ARF1-YFP (ARFA1c-YFP) (Arabidopsis thaliana) (UniProt P36397).
Assay [3] deals with ARFA-YFP (ARFB1b-YFP) (Arabidopsis thaliana).

No constants are given. Whether binding was seen depends on the method and setting. In cells and extracts the contact can be indirect. Here binding means that the protein was enriched with, or labelled near, the bait; the list need not be complete. For some of these results: A no says only that the protein was not detected with the bait.

Regarding “endogenous BIG1 (from UniProt F4JSZ5 1-1687)”, the values for the binding entry in assay [1] and in assay [2] were “no binding” and “binds”, respectively.
For “endogenous BIG2 (from UniProt Q9LZX8 1-1793)”, the binding result in assay [1] is “no binding”; in assay [2] it was “binds”.
Regarding “endogenous BIG3 (from UniProt Q9LPC5 1-1750)”, the binding result in assay [1] is “no binding”; in assay [2], “binds”.
The matching figures for “endogenous BIG4 (from UniProt F4JN05 1-1706)”: “no binding” and “binds”.

B1: retromer subunit VPS35 isoform A (protein, UniProt Q7X659 1-787)
chain: MIADGSEDEEKWLAAGAAAFKQNAFYMQRAIDSNNLKDALKYSAQMLSELRTSKLSPHKYYDLYMRAFDELRKLEIFFMEETRRGCSVIELYELVQHAGNILPRLYLLCTAGSVYIKTKEAPAKEILKDLVEMCRGIQHPLRGLFLRSYLAQISRDKLPDIGSEYEGDADTVIDAVEFVLLNFTEMNKLWVRMQHQGPAREKERREKERGELRDLVGKNLHVLSQLEGVDLDMYRDTVLPRVLEQIVNCRDEIAQYYLIDCIIQVFPDEYHLQTLDVLLGACPQLQASVDIMTVLSRLMERLSNYAALNAEVLPYFLQVEAFSKLNNAIGKVIEAQEDMPILSAVTLYSSLLKFTLHVHPDRLDYADQVLGSCVKQLSGKGKIDDTRATKELVSLLSAPLEKYNDVVTALKLTNYPLVVEYLDTETKRIMATVIVRSIMKNNTLITTAEKVEALFELIKGIINDLDEPQGLEVDEDDFQEEQNSVALLIHMLYNDDPEEMFKIVNVLKKHFLTGGPKRLKFTIPPLVVSTLKLIRRLPVEGDNPFGKEASVTATKIFQFLNQIIEALPNVPSPDLAFRLYLQCAEAADKCDEEPIAYEFFTQAYILYEEEISDSKAQVTALQLIIGTLQRMQVFGVENRDTLTHKATGYAAKLLKKPDQCRAVYACSHLFWLEDRETIQDGERVLLCLKRALKIANSAQQVANTARGSTGSVTLFIEILNKYLYFYEKGVPQITVESVESLIKLIKNEESMPSDPSAESFFATTLEFMEFQKQKEGAIGERYQAIKV
On to B1, for which the binding result in assay [1] was “binds”.

B2: endogenous GNL1 (protein, UniProt Q9FLY5 1-1443)
chain: MGYQNHPSGSNSFHGEFKRCHSKPSKGAVASMINSEIGAVLAVMRRNVRWGVRYIADDDQLEHSLIHSLKELRKQIFSWQSNWQYVDPRLYIQPFLDVILSDETGAPITGVALSSVYKILTLEVFTLETVNVGEAMHIIVDAVKSCRFEVTDPASEEVVLMKILQVLLACVKSKASNGLSNQDICTIVNTCLRVVHQSSSKSELLQRIARHTMHELIRCIFSQLPFISPLANECELHVDNKVGTVDWDPNSGEKRVENGNIASISDTLGTDKDDPSSEMVIPETDLRNDEKKTEVSDDLNAAANGENAMMAPYGIPCMVEIFHFLCTLLNVGENGEVNSRSNPIAFDEDVPLFALGLINSAIELGGPSFREHPKLLTLIQDDLFCNLMQFGMSMSPLILSTVCSIVLNLYLNLRTELKVQLEAFFSYVLLRIAQSKHGSSYQQQEVAMEALVDLCRQHTFIAEVFANFDCDITCSNVFEDVSNLLSKNAFPVNGPLSAMHILALDGLISMVQGMAERVGEELPASDVPTHEERYEEFWTVRCENYGDPNFWVPFVRKVKHIKKKLMLGADRFNRDPNKGLQYLQGVHLLPEKLDPKSVACFFRYTCGLDKNVMGDFLGNHDQFCIQVLHEFAKTFDFQNMNLATALRLFVGTFKLSGEAQKIHRVLEAFSERYYEQSPHILIDKDAAFVLAYSIILLNTDQHNAQVKTRMTEEDFIRNNRTINGGADLPREYLSEIYHSIRHSEIQMDEDKGTGFQLMTASRWISVIYKSKETSPYIQCDAASHLDRDMFYIVSGPTIAATSVVFEQAEQEDVLRRCIDGLLAIAKLSAYYHLNSVLDDLVVSLCKFTPFFAPLSADEAVLVLGEDARARMATEAVFLIANKYGDYISAGWKNILECVLSLNKLHILPDHIASDAADDPELSTSNLEQEKPSANPVPVVSQSQPSAMPRKSSSFIGRFLLSFDSEETKPLPSEEELAAYKHARGIVKDCHIDSIFSDSKFLQAESLQQLVNSLIRASGKDEASSVFCLELLIAVTLNNRDRILLIWPTVYEHILGIVQLTLTPCTLVEKAVFGVLKICQRLLPYKENLTDELLKSLQLVLKLKAKVADAYCERIAQEVVRLVKANASHVRSRTGWRTIISLLSITARHPEASEAGFEALRFIMSEGAHLLPSNYELCLDAASHFAESRVGEVDRSISAIDLMSNSVFCLARWSQEAKNSIGETDAMMKLSEDIGKMWLKLVKNLKKVCLDQRDEVRNHAISMLQRAIAGADGIMLPQPLWFQCFDSAVFILLDDVLTFSIENSRKTLKKTVEETLVLATKLMSKAFLQSLQDISQQPSFCRLWVGVLNRLETYMSTEFRGKRSEKVNELIPELLKNTLLVMKATGVLLPGDDIGSDSFWQLTWLHVNKISPSLQSEVFPQEELDQFQRRNAKPEDPPVPGNEV
As to B2, the binding entry in assay [1] is given as “no binding”; in assay [3], “no binding”; in assay [2], “binds”.

B3: retromer subunit VPS35 isoform B (protein, UniProt F4I0P8 1-790)
chain: MRTLAGVEDEDKWLAEGIAGIQHNAFFMHRALDANNLREVLKYSALMLSELRTSKLSPQKYYDLYMRAFDQLRQLEIFFKDESRHGLPVVDLYELVQHAGNILPRMYLLCTVGSVYIKSKQAPSKDVLKDLVEMCRGVQHPIRGLFLRSYLAQVSRDKLPEIGSDYEGDANTVMDAVEFVLQNFTEMNKLWVRIQHQGPGTVREKQEKERNELRDLVGKNLHVLGQIEGVDLEMYKETVLPRVLEQVVNCKDKLAQYYLMECIIQVFPDEYHLQTLETLLAACTQLMPTVDTKIVLTQLMDRLSNYAASSPDVLHEFLQVEAFAKLSNAIGKVIDTQLEMPIVGAMTLFVSLLTFTLRVHPDRLDYVDQVLGACVVKLSSVPKLEDARAMKQVVALLSAPLEKYSDIVTALTLSNYPRVMDHLDDGTNKVMAMLIIQSIMKTDSCISTADKVEVLFELIKGLIKDLDETNAEELDEEDFQEEQNSVARLIHMLDNEEPEEMLKIICVVRRHLMTGGPRRLPFTVPPLVFSAVRLVRQLESQGGDIAGEDSATPRKIFQILNQTIEVLTSVPCPELALRLYLQCAEAASDCDLEPVAYEFFTQAFMLYEEEIADSKAQVTAIHLIVGTLQRINVFGVENRDTLTHKATGYSARLLKKPDQCRAVYACSHLFWVDDPDGIKDGERVLLCLRRALRIANAAQQMASATRGSSGPVTLFVEILNKYIYFFEKGNPHITPSDIQSLIELINNEMQSDNGNTTIHSDPFFTSTLRYIKFIKQKGGLMGEKYDPIKL
For the molecule B3, in assay [1], the binding entry is “binds”.
